{"source": "PubChem BioAssay AID1487", "about": "(National Center for Advancing Translational Sciences (NCATS), 2009)", "note": "“And” between values parts separate entries of the source, which are not always exact repeats. Identical values can stand only once. Hit rate of the full screen: of about 200,000 compounds, about 25 (0.01%) were called active. The inconclusive results got no clear call from the source; some entries with a clear call stand among them for comparison. Calls follow the shape of the dose curve; as a rule, active = well fitted inhibition curve with a large enough effect in the signal ratio, with a control signal flat (not every such curve was filed as active); inconclusive = small, poorly fitted or top-dose-only effect, or effect the other way, or a change in a side signal; inactive = flat fitted curve, though single readings scatter; the % refers to the signal ratio. A potency beside an inconclusive call is a rough fit, not a confirmed value. % is scaled to controls: 0 for no effect and ±100 for the full control effect; potency is read from the fitted curve at half-maximal effect."}
{"experiment": "qHTS Assay for Modulators of Lamin A Splicing", "conditions": "HeLa LMNA splicing GFP/RFP minigene ratio, 48 h; ratio change, negative = inhibition: at 46.1 µM (top of the series) unless noted", "in_short": "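S3 HeLa stable clones carrying a lamin A-EGFP splicing minigene plus DsRed2 were seeded at 600 cells/well in Opti-MEM with 2% FBS, pin-dosed and incubated 48 h at 37°C. Acumen cytometry (488 nm) gave the GFP/RFP total-intensity ratio.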"}
{"smiles": "Cc1ccc(S(=O)(=O)N2CCN(CC(=O)NC3CCCc4ccccc43)CC2)cc1C", "note": "(stereo not drawn)", "ratio change, negative = inhibition": "inactive: -28.1%"}
{"smiles": "COc1ccc(CCNC(=O)c2cc(-c3ccc(C)c(C)c3O)n[nH]2)cc1OC", "ratio change, negative = inhibition": "inactive: -10.2%"}
{"smiles": "CSC1=NC(C(Cl)(Cl)Cl)N=C(c2ccc(C)cc2)N1", "note": "(stereo not drawn)", "ratio change, negative = inhibition": "inconclusive: 33.2% [at 46 µM]"}
{"smiles": "O=C(CCCN1CCC(O)(c2ccc(Cl)cc2)CC1)c1ccc(F)cc1", "ratio change, negative = inhibition": "inconclusive: -16% and inconclusive: -42.7% and inconclusive: -34.2%"}
{"smiles": "COc1cc(OC)c(NC(=O)C(CC(C)C)N2Cc3ccccc3C2=O)cc1Cl", "note": "(stereo not drawn)", "ratio change, negative = inhibition": "inactive: 5.81% [at 46 µM]"}
{"smiles": "O=C(O)/C=C/C(=O)Nc1ccccc1SC(F)(F)C(F)(F)C(F)(F)F", "ratio change, negative = inhibition": "inconclusive: -30.4% [at 46 µM]"}
{"smiles": "Cc1cc(C)n(-c2ccc(C(=O)Nc3ccccc3N3CCOCC3)cc2)n1", "ratio change, negative = inhibition": "inconclusive: -4.27%"}
{"smiles": "Cc1cc(=O)[nH]c(SCC(=O)OCc2ccccc2)c1C#N", "ratio change, negative = inhibition": "inconclusive: 0.12% [at 46 µM]"}
{"smiles": "Cc1cccc(N2CCN(C(=O)c3cc4ccc5cccnc5c4[nH]3)CC2)c1C", "ratio change, negative = inhibition": "inconclusive: -15.3% [at 46 µM]"}
{"smiles": "O=C(NC(=S)Nc1nc(-c2ccccc2)cs1)c1ccco1", "ratio change, negative = inhibition": "inconclusive: 5.36% [at 46 µM]"}
{"smiles": "O=C(O)C1OC(Oc2cc3oc(-c4ccccc4)cc(=O)c3c(O)c2O)C(O)C(O)C1O", "note": "(stereo not drawn)", "ratio change, negative = inhibition": "inconclusive: 1.4%"}
{"smiles": "CC(=O)Nc1ccc(C(=O)N/N=C(\\C)CC(=O)Nc2ccc(OCc3ccccc3)cc2)cc1", "ratio change, negative = inhibition": "inactive: -18.9%"}
{"smiles": "CCCNC(=O)c1nnsc1S(=O)(=O)c1ccc(Cl)cc1", "ratio change, negative = inhibition": "inconclusive: 47.5% [at 9.22 µM]"}
{"smiles": "O=c1c2ccc([N+](=O)[O-])cc2ncn1CCOc1ccccc1", "ratio change, negative = inhibition": "inconclusive: -11.9% [at 46 µM]"}
{"smiles": "Cc1cc(C)cc(N2C(=O)CSC23C(=O)N(CC(N)=O)c2ccccc23)c1", "note": "(stereo not drawn)", "ratio change, negative = inhibition": "inconclusive: 8.31% [at 46 µM]"}
{"smiles": "Cc1cnc(CNc2nc(-c3ccc4c(c3)OCO4)nc3ccccc23)cn1", "ratio change, negative = inhibition": "inactive: -4.29%"}
{"smiles": "COc1ccc2nc(NC(=O)Cc3cccs3)sc2c1", "ratio change, negative = inhibition": "inactive: -22.5%"}
{"smiles": "COc1ccc(-c2cc(C(F)(F)F)nc(S(=O)(=O)CCCC(=O)Nc3cc(C)on3)n2)cc1OC", "Potency": "active: 3.98 µM"}
{"smiles": "c1ccc2c(c1)OCC(CNc1ncnc3sccc13)O2", "note": "(stereo not drawn)", "Potency": "inconclusive: 0.447 µM [fluorescent, full curve]"}
{"smiles": "COc1ccc(C(=O)N2CCN(C3CCC(c4ccccc4)CC3)CC2)cc1OC", "note": "(stereo not drawn)", "ratio change, negative = inhibition": "inactive: -12.4%"}
{"smiles": "CCOc1c(Cl)cc(C2NC(=O)NC(C)=C2C(=O)NCc2ccccc2)cc1OC", "note": "(stereo not drawn)", "ratio change, negative = inhibition": "inactive: -6.45%"}
{"smiles": "COc1ccc(Cl)cc1Nc1nc(N)nc(C(F)(F)F)n1", "Potency": "inconclusive: 35.5 µM [activator, single point]"}
{"smiles": "COc1ccc(C)cc1-n1c(SCC(=O)NCc2ccco2)nc2c([nH]c3ccccc32)c1=O", "ratio change, negative = inhibition": "inconclusive: -1.22% [at 46 µM]"}
{"smiles": "CC1CCc2nc3ncn(Cc4cccc(F)c4)c(=O)c3cc2C1", "note": "(stereo not drawn)", "ratio change, negative = inhibition": "inactive: -0.361% [at 46 µM]"}
{"smiles": "Cc1ccc(Cn2ncc3c(N4CCN(c5ccccc5C)CC4)ncnc32)cc1", "Potency": "inconclusive: 10 µM [falling, partial curve]"}
{"smiles": "O=[N+]([O-])/C(=C\\Nc1ccccc1)S(=O)(=O)c1ccccc1", "ratio change, negative = inhibition": "inconclusive: -3.79%"}
{"smiles": "COc1cccc(NC(=O)COC(=O)c2ccc(S(=O)(=O)NCc3ccco3)cc2)c1", "ratio change, negative = inhibition": "inactive: -1.44%"}
{"smiles": "CCOC(=O)c1ccc(NC(=S)N(CCN2CCCCCC2)Cc2cccs2)cc1", "ratio change, negative = inhibition": "inconclusive: -25.7% [at 46 µM]"}
{"smiles": "COC(=O)c1cccc(NC(=O)c2nn(C)c(=O)c3ccccc23)c1", "ratio change, negative = inhibition": "inconclusive: 12.3%"}
{"smiles": "N#Cc1nc(-c2ccco2)oc1NCc1ccc(F)cc1", "ratio change, negative = inhibition": "inactive: -6.57%"}
{"smiles": "Cc1nn(C(=O)c2ccco2)c(C)c1Sc1ccc(Cl)cc1", "ratio change, negative = inhibition": "inactive: -5.96%"}
{"smiles": "O=C(CNC(=O)c1ccc(Cl)cc1)NCC(F)(F)F", "ratio change, negative = inhibition": "inconclusive: 6.76%"}
{"smiles": "Cc1ccc(S(=O)(=O)/C=C2\\NC(=O)CS2)cc1", "ratio change, negative = inhibition": "inactive: 3.83%"}
{"smiles": "Cc1ccc(OCCSc2nc3ccccc3n2CCC(=O)O)cc1", "ratio change, negative = inhibition": "inconclusive: 3.74% [at 46 µM]"}
{"smiles": "COn1c(SC(C)C)nc2ccccc2c1=O", "ratio change, negative = inhibition": "inactive: 5.49%"}
{"smiles": "Cc1cc(-n2c(C)cc(C(=O)CSc3nnnn3-c3ccc(Cl)cc3)c2C)no1", "ratio change, negative = inhibition": "inactive: -11.9%"}
{"smiles": "O=C(CN1CCSc2ccccc21)NCCCc1ccccc1", "ratio change, negative = inhibition": "inconclusive: 22.2% [at 46 µM]"}
{"smiles": "Cc1cc(Nc2cccc(Cl)c2)nc2ccc(NC(=O)Cc3c(F)cccc3Cl)cc12", "ratio change, negative = inhibition": "inconclusive: -4.04% [at 46 µM]"}
{"smiles": "CCOC(=O)C(=O)NNc1ccccc1C", "ratio change, negative = inhibition": "inconclusive: 2.05%"}
{"smiles": "O=C(O)COc1c(Cl)cc(/C=C2\\NC(=O)NC2=O)cc1Br", "ratio change, negative = inhibition": "inactive: 19.6% [at 46 µM]"}
{"smiles": "COc1ccc2[nH]cc(CCNc3nc(-c4ccccc4OC)nc4ccccc34)c2c1", "ratio change, negative = inhibition": "inconclusive: -18.4%"}
{"smiles": "COc1ccc2nc(N(Cc3cccnc3)C(=O)c3ccc(Cl)cc3)sc2c1", "ratio change, negative = inhibition": "inactive: 4.83% [at 46 µM]"}
{"smiles": "COC(=O)c1ccc2c(c1)N(CC(=O)Nc1ccc(C)c(C)c1)C(=O)c1ccccc1S2", "ratio change, negative = inhibition": "inconclusive: 13.5% [at 46 µM]"}
